The whole screen tested about 230,000 compounds, of which about 310 (0.13%) were called active. Roughly 2% stayed inconclusive and do not appear here. Calls come from the whole dose curve; as a rule, active = well fitted activation curve with a large enough effect; inconclusive = small, poorly fitted or top-dose-only effect; inactive = no such curve, though single readings can be large or run the other way. The entries are a selection whose mix differs from that of the whole data set. Entries without a call were filed so in the source.

The nature of this assay: qHTS Multiplex Assay to Identify Dual Action Probes in a Cell Model of Huntington: Cytoprotection (ATP).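 For cytoprotection (ATP increase): toxic huntingtin expression switched on by the ecdysone agonist tebufenozide; % of control where 0% means no effect.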 Note: nearly all actives have a fitted effect of over 45% in size. To be noted: PC12 HTT-Q103 induced, ATP luminescence, 40 h; cytoprotection (ATP increase): at 56.4 µM (top of the series) unless noted. The text has this:
NIH Chemical Genomics Center [NCGC]
NIH Molecular Libraries Probe Production centers Network [MLPCN]
Assay Submitter (PI): Wei Zheng
Huntington's disease is a neurodegenerative disorder caused by a trinucleotide repeat expansion in Exon 1 of the Huntingtin gene. The CAG trinucleotide encodes glutamine and polyglutamine expansions cause cell death in selective areas of the brain. Huntington polyglutamine repeats have the tendency to form aggregates which are observable in later stages of the disease. The exact nature of the aggregates, whether toxic, protective, or insignificant, is unclear.
A stable PC12 cell line containing a gene fusion of Exon 1 of the Huntingtin gene linked to GFP under the control of the inducible ecdysone promoter were used as the cell-based model of Huntington Disease for high throughput screening. Exon 1 of the Huntingtin gene contained an expansion of 103 polyglutamines (Q103) which, when expressed, caused cell death and distinct, bright GFP aggregates. The amount of cell death and the size and intensity of GFP aggregates increased over time and induction level. The cell death were quantified with a measurement of ATP content in the cells. A maximal 40-50% of cell death was observed when the Huntington gene was induced in this cell line.
We optimized this assay in a homogeneous 1536 well format. A quantitative high throughput screen (qHTS) was conducted on the PC12 cells which were induced to express the toxic fusion construct. Small molecules which prevented cell death were identified by using a luminescent ATP quantification method (Perkin Elmer's ATPlite).
PC12 cells stably containing a construct with an ecdysone inducible promoter expressing GFP fused to the exon 1 of HTTQ103 (Huntington protein which containing a 103 ployglutamine expansion) were used.
NCGC Assay Protocol Summary:
Sequence, Parameter, Description
1, Reagent, 5 uL 1500 cells/well 1536 TC treated White clear bottom plate
2, Compound, 23 nL Tebufenozide inducer (100 nM final) to all columns
3, Compound, 23 nL 40 uM to 0.5 nM Libraries
5, Reagent, 5 ul ATPLite cell death assay reagent
6, Detector, 4 sec integration with a Viewlux Luminescent
Media consisted of phenol red free DMEM + 5% equine serum (Hyclone # SH30072.03 ), 5% supplemented Bovine Calf Serum (Hyclone # SH30074.03 ), 1x pen/strep, no G418
Control columns: 1 = DMSO, 2= 2 uM teb dilns (1:1), 4 = 100 nM Teb inducer. Sample columns received 100 nM Teb.
(Quantitative high-throughput screening tests each substance at several concentrations.)
As for `Cc1ccc(-c2cc(=O)c3ccccc3[nH]2)cc1`, the cytoprotection (ATP increase) was -210% [at 96.6 µM]. As to `NC(Cc1ccc(O)c(O)c1)C(=O)O` (stereo not drawn), the cytoprotection (ATP increase) is -160%. As for `CCOC(=O)c1ccc(S(=O)(=O)Nc2nc3cc(S(=O)(=O)NC4=NCCCCC4)ccc3s2)cc1`, the Potency is active: 17.8 µM.

In the case of `C/C(=C\c1ccco1)C1C(C#N)=C(N)Oc2n[nH]c(-c3ccc(C)cc3)c21` (stereo not drawn), the Potency was active: 3.55 µM. As to `CC/C=C\C/C=C\C/C=C\C/C=C\C/C=C\C/C=C\CCC(=O)NCCCC(=O)O`, the cytoprotection (ATP increase) is 36.4%. Consider `COc1ccc(Nc2ncnc3ccc(OC)cc23)cc1`, for which the cytoprotection (ATP increase) was -60.3%. As to `N#CCCn1c(=O)c(-c2ccc(F)cc2)nc2cnc(Oc3cccc(Cl)c3)nc21`, the Potency is active: 3.16 µM. For `COc1cc(C(=O)NNC(=O)c2ccc(NC(C)=O)cc2)cc(OC)c1OC`, the cytoprotection (ATP increase) worked out at 7.17%. On the same count and under the same terms, in the case of `CCOC(=O)N1CCN(C(=O)c2ccc(CS(=O)(=O)c3c(Cl)cccc3Cl)o2)CC1` it was 305% [at 10 µM]; in that of `Clc1ccc(OCCN2CCCCC2)cc1Cl`, 160% [at 0.074 µM]; in that of `CCCCCCCC/C=C\CCCCCCCC(=O)NCCc1ccc(O)c(O)c1`, -341%. Take `COC(=O)C(c1ccc(OC)c(OC)c1)C1c2ccccc2C=C(C)N1C(=O)OC` (stereo not drawn): the cytoprotection (ATP increase) was 36.8%. `CC1=NC(C#N)=C(C#N)NC(C)(C)C1`: the cytoprotection (ATP increase) came out at 43.9%. Turning to `C=C[C@H]1CCC=C2C(=O)CCC[C@@H]21`, the cytoprotection (ATP increase) turned out to be 7.24%. For the molecule `O=C(Oc1ccccc1)C1O[C@@H]1c1ccccc1` (stereo partly drawn), the cytoprotection (ATP increase) was 21.6%. Turning to `CCCCCCCCCCCCCCCC(=O)NCC(=O)O`, the cytoprotection (ATP increase) stood at 30.6%. Consider `CCOC(=O)CNC(=O)O[C@H]1C(=O)c2ccc(OC)cc2O[C@@H]1c1ccc2c(c1)OCO2`, for which the cytoprotection (ATP increase) is -10.6%. `CC(=O)Oc1c(C)c(C)c2c(c1C)CCC(C)(CCCC(C)CCCC(C)CCCC(C)C)O2` (stereo not drawn): the cytoprotection (ATP increase) worked out at 33.9%. For the molecule `COC(=O)CCCC1=CC2=CC(=O)C(C)(OC(=O)c3ccco3)C(=O)C2=CO1` (stereo not drawn), the cytoprotection (ATP increase) turned out to be 53%. As to `COc1ccc(CNC(=O)CCCNS(=O)(=O)c2cccc3nonc23)cc1`, the Potency is active: 3.55 µM. Consider `CCCCC/C=C\C/C=C\C/C=C\C/C=C\CCCC(=O)OC(CO)CO`, for which the cytoprotection (ATP increase) turned out to be 109%. Turning to `COc1ccc(C(=O)Oc2cc(N)n(S(=O)(=O)c3ccccc3)n2)cc1`, the Potency was active: 0.708 µM. With `CCCCC[C@H](O)C/C=C1/C(=O)C=C[C@@H]1C/C=C\CCCC(=O)O`, the cytoprotection (ATP increase) worked out at 69.8%. As to `C#CC[N+]1(CC#Cc2cccc(C)c2)CCCCC1`, the cytoprotection (ATP increase) is -38.5%. Turning to `Cc1ccc(Nc2nc(-c3ccc(O)cc3O)cs2)nc1`, the cytoprotection (ATP increase) came to 413% [at 10 µM]. For the molecule `O=C1CCCCC2CCCCN12` (stereo not drawn), the cytoprotection (ATP increase) is -32.6% [at 96.6 µM].

Turning to `C=C(C)[C@]12C[C@@H](C)[C@@]34OC(Cc5ccccc5)(O[C@@H]1[C@@H]3C=C(COC(=O)Cc1cc(OC)c(O)cc1I)C[C@]1(O)C(=O)C(C)=C[C@@H]41)O2`, the cytoprotection (ATP increase) was -343%. Same read-out and setting: in the case of `CNC(=S)N(Cc1cccs1)Cc1cc2cc(OC)ccc2[nH]c1=O` it was 229% [at 10 µM]; in that of `Cc1cc(O)c(C=O)c2c1C(=O)Oc1c(COC(=O)/C=C/C(=O)O)c(O)c(C(=O)O)c(C)c1O2`, 76.2%; in that of `CCOc1ccccc1-c1ccc(C(=O)O)s1`, -53.2% [at 96.6 µM]. For the molecule `CS(=O)(=O)Nc1ccc([N+](=O)[O-])cc1OC1CCCCC1`, the cytoprotection (ATP increase) is -52.2%. Consider `N#Cc1cccc(CS(=O)(=O)c2nc3ccccc3s2)c1`, for which the cytoprotection (ATP increase) turned out to be 38.2%.

Consider `O=[N+]([O-])c1cc(S(=O)(=O)/N=C(/c2ccccc2)N2CCOCC2)ccc1Cl`, for which the cytoprotection (ATP increase) is -120%. Consider `O=C(CCNC(=O)c1ccccc1Cl)Nc1nc(-c2ccc(F)cc2)cs1`, for which the cytoprotection (ATP increase) came to 271% [at 10 µM]. Still for that read-out and setting: with `CCCOc1ccc(C(=O)Nc2ccc(S(=O)(=O)Nc3onc(C)c3C)cc2)cc1` the figure was -37.6%. Take `COC(=O)[C@@]1(Cc2ccc(OC)cc2)[C@@H]2C(=CC(=O)[C@H]2CC(=O)C(=O)N2CCCC2)CN1C(=O)c1ccccc1`: the Potency was active: 7.08 µM.

Consider `CC(C)OC(=O)[C@@H]1CC[C@H](C)[C@@H](CCCC=O)O1`, for which the cytoprotection (ATP increase) is -67.6%. As for `Cc1[nH]c2ccccc2c1C(=O)COC(=O)C1CCC(=O)N1` (stereo not drawn), the cytoprotection (ATP increase) turned out to be 43.5%. For the molecule `CC(C)OC(=O)[C@@H]1CC[C@H](C)[C@@H](CCC[C@@H]2C[C@@H](O)C[C@H](CC#N)O2)O1`, the cytoprotection (ATP increase) was found to be 42.1%.

As to `Brc1ccc(C2=NCCC(c3ccccc3)O2)cc1` (stereo not drawn), the cytoprotection (ATP increase) was -55.2%. For the molecule `CCCCCCCCCCCCCCCC(=O)NCCO`, the cytoprotection (ATP increase) is -17.1%. `[O][C@H]1[C@@H](O)[C@@H](CO)O[C@@H](O[C@@H]2[C@@H]3OC[C@H]2O[C@H](O[C@@H]2[C@@H](O)[C@H](C[C@@H]4[C@@H]5OC[C@H]4O[CH][C@@H]5O)O[C@H](CO)[C@@H]2OS(=O)(=O)O)[C@@H]3OS(=O)(=O)O)[C@@H]1O`: the cytoprotection (ATP increase) was -36.7%. For the molecule `NC(=O)CS(=O)(=O)c1nc2ccccc2n1Cc1ccccc1F`, the Potency is active: 25.1 µM. As to `O=c1cc(N2CCNCC2)oc2c(-c3ccccc3)cccc12`, the cytoprotection (ATP increase) was -64.5%. Consider `CCCCC1=CC2=CC(=O)C(C)(OC(=O)CCC(=O)OC)C(=O)C2=CO1` (stereo not drawn), for which the cytoprotection (ATP increase) was -42.1%. For `CCOc1ccc(NC(=S)N(CCCN2CCCC2)Cc2cccn2Cc2ccc(Cl)cc2)cc1`, the cytoprotection (ATP increase) was -33.5%. With `Cc1cc(OCc2cccc(Cl)c2)c(C)cc1CN1CCOCC1`, the Potency was active: 1.12 µM. `O=C1CCC([N+](=O)[O-])C(c2ccc(Cl)c([N+](=O)[O-])c2)N1` (stereo not drawn): the cytoprotection (ATP increase) was determined as 121%. Still for that read-out and setting: with `COc1ccc2c(c1)CC[C@@H]1[C@@H]2CC[C@]2(C)[C@@H](NCCCCCCN3C(=O)C=CC3=O)CC[C@@H]12` the figure was 3.96%; with `CC[C@H](C)[C@@H](NC(=O)O[C@@H]1C(=O)c2cc(Br)ccc2O[C@H]1c1cccc(OC)c1)C(=O)OC`, -81.2%. Regarding `CC(=O)n1cc([C@@H]2C=C(C(=O)NCc3ccccc3)O[C@H](OCCCCO)C2)c2ccccc21`, the cytoprotection (ATP increase) is 205% [at 10 µM]. Regarding `COc1cc(C/C=C/c2ccccc2)c(OC)cc1O`, the cytoprotection (ATP increase) was -167%. With `O=C(CCCc1cccs1)Nc1nc2c(s1)CCCC2`, the cytoprotection (ATP increase) is 309% [at 10 µM]. As to `O=C(O)C1CCC(=O)N(C2CCCCC2)C1c1ccccc1` (stereo not drawn), the cytoprotection (ATP increase) came out at 333% [at 10 µM]. `COC(=O)/C=C/c1cccc([C@H]2[C@@H]3C=CC[C@@H](C)[C@@H]3C(=O)N2Cc2ccccc2)c1`: the cytoprotection (ATP increase) is -93.7%. Take `CC1Cc2ccccc2N1Cc1cc(=O)n2ccsc2n1` (stereo not drawn): the cytoprotection (ATP increase) worked out at 334% [at 10 µM]. For the molecule `COC(=O)c1nnc(SC)nc1C(=O)OC`, the cytoprotection (ATP increase) turned out to be 24.7%. The same measure, in the same setting: in the case of `COc1cccc2c1CCC1=CC(=O)CC[C@@]12C` it was -8.08%.

(Values after PubChem BioAssay AID1471 (National Center for Advancing Translational Sciences (NCATS), 2008).)
